The text below walks through data of article PMC11811133.

Sequences of proteins named here, by UniProt entry; tags and fusion partners are left off.
UniProt Q8C6L5: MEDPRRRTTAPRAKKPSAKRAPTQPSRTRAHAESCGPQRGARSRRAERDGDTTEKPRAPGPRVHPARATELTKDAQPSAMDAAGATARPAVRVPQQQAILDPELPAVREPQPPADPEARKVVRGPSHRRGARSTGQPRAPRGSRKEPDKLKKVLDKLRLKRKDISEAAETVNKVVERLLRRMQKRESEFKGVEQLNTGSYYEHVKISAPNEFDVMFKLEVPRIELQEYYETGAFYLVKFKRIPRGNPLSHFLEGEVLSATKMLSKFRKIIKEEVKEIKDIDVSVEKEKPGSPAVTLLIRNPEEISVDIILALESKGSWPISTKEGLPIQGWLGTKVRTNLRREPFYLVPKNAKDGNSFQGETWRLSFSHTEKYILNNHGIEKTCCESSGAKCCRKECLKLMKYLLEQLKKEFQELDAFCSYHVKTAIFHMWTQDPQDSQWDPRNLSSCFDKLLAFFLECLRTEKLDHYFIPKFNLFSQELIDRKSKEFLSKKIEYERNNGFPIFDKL

These are yes or no findings as the source states them, for the method shown. Binding seen in cells or lysates may run through a third protein. Some results given as binding are weak or reduced against the parent protein; the word gives no strength. For part of these data: Tags and fused reporters may be left off the sequences shown.

The target in assay [1] is cGAS (cyclic GMP-AMP synthase), endogenous (UniProt Q8C6L5). In words: co-IP; cells transfected with TRIM56 WT, K110Q or K110R, then infected with HSV-1 (MOI = 3) for 12 h; endogenous cGAS.
The target in assay [2] is T1, HA-HDAC6 (full-length wild-type mouse histone deacetylase 6), expressed in 293T cells (mouse) (UniProt Q9Z2V5).
T1 sequence: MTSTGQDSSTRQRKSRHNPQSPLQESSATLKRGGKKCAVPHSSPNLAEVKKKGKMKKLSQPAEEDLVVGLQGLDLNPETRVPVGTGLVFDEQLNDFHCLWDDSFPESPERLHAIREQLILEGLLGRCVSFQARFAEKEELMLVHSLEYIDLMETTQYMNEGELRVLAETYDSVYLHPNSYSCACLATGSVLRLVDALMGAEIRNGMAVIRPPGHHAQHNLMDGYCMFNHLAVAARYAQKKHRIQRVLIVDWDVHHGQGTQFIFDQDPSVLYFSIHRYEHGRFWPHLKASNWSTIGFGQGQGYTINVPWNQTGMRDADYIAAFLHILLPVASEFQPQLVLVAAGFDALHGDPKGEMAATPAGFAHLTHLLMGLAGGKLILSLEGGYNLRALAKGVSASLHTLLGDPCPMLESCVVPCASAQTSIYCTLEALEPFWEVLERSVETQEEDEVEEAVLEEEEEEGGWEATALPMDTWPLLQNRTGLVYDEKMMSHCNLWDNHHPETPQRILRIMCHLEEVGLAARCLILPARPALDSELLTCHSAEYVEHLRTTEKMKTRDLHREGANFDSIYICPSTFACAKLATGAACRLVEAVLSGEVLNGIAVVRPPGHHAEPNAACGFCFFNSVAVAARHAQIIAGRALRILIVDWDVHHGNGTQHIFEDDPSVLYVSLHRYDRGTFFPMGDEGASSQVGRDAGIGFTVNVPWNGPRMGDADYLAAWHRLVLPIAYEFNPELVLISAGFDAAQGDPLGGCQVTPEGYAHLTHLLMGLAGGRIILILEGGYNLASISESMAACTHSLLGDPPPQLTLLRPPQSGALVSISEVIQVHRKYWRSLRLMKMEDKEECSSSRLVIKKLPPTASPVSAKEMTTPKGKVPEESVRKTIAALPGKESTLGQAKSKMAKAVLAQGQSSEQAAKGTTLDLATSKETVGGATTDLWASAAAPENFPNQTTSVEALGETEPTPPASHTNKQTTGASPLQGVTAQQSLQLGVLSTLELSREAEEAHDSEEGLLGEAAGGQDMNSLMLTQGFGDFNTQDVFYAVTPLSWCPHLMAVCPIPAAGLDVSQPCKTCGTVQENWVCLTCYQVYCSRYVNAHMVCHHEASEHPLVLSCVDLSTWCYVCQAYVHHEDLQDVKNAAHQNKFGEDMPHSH
Briefly: co-IP; 293T cells co-transfected with HA-HDAC6 and Flag-TRIM56.

The target in assay [3] is T2, HDAC6 (histone deacetylase 6), endogenous in N2a cells (mouse (endogenous in N2a)) (UniProt Q9Z2V5).
T2 sequence: T1 sequence
In words: co-IP; endogenous HDAC6 and TRIM56 in N2a cells, antibody with protein A/G magnetic beads overnight; cells without or with HSV-1 (MOI = 3, 12 h; MOI = 5, indicated times).

For assay [4], the target named is cGAS (cyclic GMP-AMP synthase), endogenous (UniProt Q8C6L5). Briefly: co-IP; endogenous TRIM56 and cGAS in cells transfected with HDAC6-WT or HDAC6-HD1/2 m (HDAC6 WT suppressed the binding).

Take “TRIM56 K110Q (acetyl-mimetic mutant of mouse TRIM56) (from UniProt Q80VI1 1-734)”: the binding result in assay [1] is on record as “binds”.

Turning to “TRIM56 K110R (non-acetylated mutant of mouse TRIM56) (from UniProt Q80VI1 1-734)”, the binding entry in assay [1] is “binds”.

B1: Flag-TRIM56 (full-length wild-type mouse TRIM56), expressed in 293T cells (protein, UniProt Q80VI1 1-734)
chain: MNSKVSSPTLLEALSSDFLACKICLEQLHTPKTLPCLHTYCQDCLAQLDIGGQVRCPECREIVPVPAEGVAAFKTNFFVNGLLDLVKARAPGDVHSGKPTCALCPLVGGKSSGGPATARCLDCADDLCQACADGHRCSRQTHKHRVVDLVGYRAGWYDEEARERQASQCPQHPGEALCFLCQPCSQLLCKDCRLGPHIDHPCLPLAEAVRSRKPGLEELLAGVDSNLVELEATRVAEKEALALLREQAASVGTQVEEAAERILKSLLAQKQEVLGQLRALVEAAEEATRERLTKIERQEQVAKAAAAFARRVLSLGLEAEILSLEGAITQRLRQLQDAPWTSGPTRCVLPQLELHPGLEDKNCHLLRLIFEEPKQSPKDSGKGGAGTQGGDEAQGQGDDRTKIGKQGGAQPLTPKEGKDQNPQEDDGVFIERGNRPNKKKKCKGRGKSVSREPSPILRPNLEGSGLLPRPVFSWSFPTRMPGDKRSPRITGLCPYGPQEILVADEQNRVLKRFSLNGDYKGTVQVPEGCSPCSVAALQNAVAFSANAKLYLVSPDGEIQWRRSLSLTQSSHAVAAMPCGDRVAVSVAGHVEVYKKDGSLATRFIPGGKASRGQRALVFLTTSPQGNFVGSDWQQNSVVFCDGLGQVIWEYKGPGLHGCQPGSVSVDKKGYIFLTLREVNKVVILDPKGSLLGDFLTAYHGLEKPRVTTMVDGKYLVVSLSNGTIHVFRVRFPDS
Consider B1, for which the binding entry in assay [2] is listed as “binds”.

B2: TRIM56 WT (Flag-TRIM56, full-length mouse), transfected for the co-IP with cGAS (protein, UniProt Q80VI1 1-734)
chain: B1 chain
On to B2, for which the binding result in assay [1] is recorded as “binds”.

B3: TRIM56 (tripartite motif protein 56), endogenous in N2a cells (protein, UniProt Q80VI1 1-734)
chain: B1 chain
Take B3: the binding entry in assay [3] and in assay [4] was “binds” throughout.
